Results are given in words; binding and its absence hold for the method and conditions named. For some assays here: Binding calls can cover weak binding; strength is not graded here.
Assays:
[1] = molecular target: T1, scrambled version of QBP1 (SCR); assay: condition: 180 μM ApCPEB PLD injected into 84 μM SCR; ITC; ApCPEB PLD (180 μM) injected into the cell loaded with peptide (495 μM QBP1 or 84 μM SCR), VP-ITC, 25 °C, PBS pH 7.4; no quantitative analysis of the titration curves; both purified
T1 sequence (peptide, N-terminal acetylation; C-terminal amidation): WPIWKGWF

[2] = molecular target: T2, Q-binding peptide 1, minimal active core (QBP1-M8); assay: ITC; ApCPEB PLD (180 μM) injected into the cell loaded with peptide (495 μM QBP1 or 84 μM SCR), VP-ITC, 25 °C, PBS pH 7.4; no quantitative analysis of the titration curves; both purified
T2 sequence (peptide, N-terminal acetylation; C-terminal amidation): WKWWPGIF

neuronal Aplysia CPEB prion-like domain (residues 1-160) (domain or fragment)
binding [1]: no binding
binding [2]: binds
